Test results from patent publication US11033607B2, “Peptides and methods for preventing ischemic tissue injury” (University Health Network, priority 2012, dated 2021).

Assay: Body weight, heart/body weight ratio and non-fasting blood glucose during 14-day peptide infusion
Format: in vivo, mouse
Settings: for heart/body weight ratio: after 14 days of infusion; for body weight: day 1 vs day 14 of peptide infusion

| Substance | heart/body weight ratio | body weight |
| --- | --- | --- |
| H-FIAWLVKGR-NH2 (C-terminal amide; Human peptide fragments) [GLP-1(28-36)^amide] | did not significantly affect | did not significantly affect |
| H-HAEGTFTSDVSSYLEGQAAKEFIAWLVKGR-NH2 [GLP-1(7-36)^amide] | did not significantly affect | did not significantly affect |
